Not every detail of the peptide structures is certain; ends, links or a residue may be inferred.
Columns and labels:
[1] = test system: HN receptor (HNR; CNTF-R/WSX-1/gp130) on F11 cells; assay: Immunofluorescence-based binding assay (2): biotin-HN / biotin-HNG binding to F11 cells; design: species or system mouse
Procedure: A) F11 cells were seeded on 96-well plates coated with poly-L-lysine (7×10^3 cells/well). An indicated amount of biotin-HN or biotin-HNG was added to the cells with or without 10 μM of unlabelled HNG or HNA, followed by a binding assay based on immunofluorescence reaction (2) (left panels). On the other hand, F11 cells were transfected with 0.5 μg of pcDNA3.1/GS-human CNTF-R, pEF1/MycHis-human WSX-1, and 1.0 μg of pCAG-human gp130. At 24 hrs after the transfection, the cells were re-seeded on 96-well plates coated with poly-L-lysine (7×10^3 cells/well). After 36 hrs the re-seeding, an indicated amount of biotin-HN or biotin-HNG was added to the cells with or without 10 μM of unlabeled HNG or HNA, followed by a binding assay based on immunofluorescence reaction (2) (right panels).
B) F11 cells were transfected with 0.5 μg of pRNA-U1.6/Shuttle vector, pRNA-U6.1/Shuttle-WSX-1 siRNA, pRNA-U6.1/Shuttle-CNTF-R siRNA, both pRNA-U6.1/Shuttle-WSX-1 siRNA and pRNA-U6.1/Shuttle-CNTF-R siRNA (0.5 μg each), pRNA-U6.1/Shuttle-FPR2 siRNA or pRNA-U6.1/Shuttle-LIFR siRNA. The total amount of vectors was adjusted to be 1.0 μg by including a backbone vector. At 24 hrs after the transfection, an indicated amount of biotin-HNG was added with or without unlabeled HNG, followed by a binding assay based on immunofluorescence reaction (2) at 72 hrs after the transfection.
E) F11 cells on 6-well plate (7×10^4 cells/well) were transfected with 1.0 μg of pRNA-U6.1/Shuttle vector, pRNA-U6.1/Shuttle-Bax siRNA, or both pRNA-U6.1/Shuttle-WSX-1 siRNA and pRNA-U6.1/Shuttle-CNTF-R siRNA (0.5 μg each). At 72 hrs after the transfection, the cells were added with an indicated amount of biotin-HN with or without unlabeled HN or HNA (100 μM) and subjected to an HN-binding assay based on immunofluorescence.
F11 cells (7×10^4/well in 6-well plates) were replated into 96-well plates (7×10^3 cells/well) at 24 hrs after transfection with indicated amounts of the plasmids encoding mycHis-WSX or V5-CNTF-R, and with PCAG-human gp130 if required. At 36 hrs after transfection, the cells were added with biotin-labeled HN or HNG of indicated concentrations in the presence or the absence of HNG (S14G-HN) or HNA (C8A-HN) of indicated concentrations (Hashimoto et al., 2001 a). After 6 hrs incubation, they were fixed with 4% paraformaldehyde in PBS for 30 min. After washing with PBS, cells were stained with FITC-conjugated avidin (Molecularprobe, Eugene, Oreg., USA). Immunofluorescence intensity was measured (excitation=485 nm, emission=535 nm) with a spectrofluorometer (Wallac1420 ARVOsx Multi Label Counter). Immunohistochemical analysis was done with a laser-scanning, confocal microscope LSM (Carl Zeiss, Germany).

[2] = test system: neuronal cell death by AD-related insults; conditions: Ten mM; cited from earlier work

CC[C@H](C)[C@H](NC(=O)[C@H](CCC(=O)O)NC(=O)[C@H](CO)NC(=O)[C@@H](NC(=O)[C@H](CC(C)C)NC(=O)[C@H](CC(C)C)NC(=O)[C@H](CC(C)C)NC(=O)[C@H](CC(C)C)NC(=O)[C@H](CS)NC(=O)[C@H](CO)NC(=O)[C@H](Cc1ccccc1)NC(=O)CNC(=O)[C@H](CCCNC(=N)N)NC(=O)[C@@H]1CCCN1C(=O)[C@H](C)NC(=O)[C@@H](N)CCSC)[C@@H](C)O)C(=O)N[C@@H](CC(=O)O)C(=O)N[C@@H](CC(C)C)C(=O)N1CCC[C@H]1C(=O)N[C@H](C(=O)N[C@@H](CCCCN)C(=O)N[C@@H](CCCNC(=N)N)C(=O)N[C@@H](CCCNC(=N)N)C(=O)N[C@@H](C)C(=O)O)C(C)C [HN, Humanin]
binding to F11 cells ([1]; expression of endogenous CNTF-R and WSX-1 simultaneously decreased by siRNA): almost completely inhibited | binding to F11 cells ([1]; expression of endogenous CNTF-R or WSX-1 decreased by siRNA): significantly decreased | inhibition of neurotoxicity induced by various AD-related insults [2]: completely inhibits
